Some of the results follow.
Tests used:
Experiment in all cases: log2 fold change, soluble protein after heating vs DMSO (PISA); higher = thermal stabilisation; K562 lysate, 10 uM; active = over 0.2 and 3.5 SD of the protein, either way, in both replicates (recomputed)
erlotinib = compound: C#Cc1cccc(Nc2ncnc3cc(OCCOC)c(OCCOC)cc23)c1 [erlotinib]
Procedure, shortened: (§1)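 K562 pellets were dounce-homogenised in PBS pH 7.4 containing 1 mM MgCl2, and the crude extract, at 1 mg/mL protein, was exposed to 10 μM compound for 30 min. Aliquots were heated for 3 min across 48°C-58°C, pooled, brought to 0.5% NP-40 at 4°C and spun at 21,000xg for 90 min, with the supernatant taken as soluble protein. TMTpro 16plex LC-MS/MS with equalised channel sums quantified that protein. Values are log-two fold changes in thermal stability relative to solvent controls, taken from duplicates.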

Amino acid sequences for entries named in this document (tags omitted). A change or cut given only in a name is not applied to a line headed by its entry.
UniProt Q5HYK3: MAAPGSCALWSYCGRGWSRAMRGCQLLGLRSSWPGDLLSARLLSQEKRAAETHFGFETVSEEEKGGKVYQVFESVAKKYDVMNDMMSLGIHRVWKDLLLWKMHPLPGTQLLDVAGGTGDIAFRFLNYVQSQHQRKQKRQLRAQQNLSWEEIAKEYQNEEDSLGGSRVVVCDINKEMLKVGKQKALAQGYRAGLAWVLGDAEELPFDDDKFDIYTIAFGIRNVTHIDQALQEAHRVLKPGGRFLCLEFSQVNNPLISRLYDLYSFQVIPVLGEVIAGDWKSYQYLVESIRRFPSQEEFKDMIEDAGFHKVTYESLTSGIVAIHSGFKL
UniProt Q9NZJ6: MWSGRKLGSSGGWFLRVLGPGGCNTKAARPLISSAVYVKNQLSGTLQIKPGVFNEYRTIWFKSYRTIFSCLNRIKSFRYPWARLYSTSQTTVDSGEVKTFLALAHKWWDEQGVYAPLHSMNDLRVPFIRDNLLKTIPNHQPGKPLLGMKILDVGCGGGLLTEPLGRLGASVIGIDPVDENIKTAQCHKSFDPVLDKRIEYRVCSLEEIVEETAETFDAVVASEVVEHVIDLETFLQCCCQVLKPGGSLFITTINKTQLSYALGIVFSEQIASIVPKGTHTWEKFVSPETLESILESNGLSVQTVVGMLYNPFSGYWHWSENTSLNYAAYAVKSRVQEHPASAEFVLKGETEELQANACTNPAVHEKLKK
UniProt Q9UNS2: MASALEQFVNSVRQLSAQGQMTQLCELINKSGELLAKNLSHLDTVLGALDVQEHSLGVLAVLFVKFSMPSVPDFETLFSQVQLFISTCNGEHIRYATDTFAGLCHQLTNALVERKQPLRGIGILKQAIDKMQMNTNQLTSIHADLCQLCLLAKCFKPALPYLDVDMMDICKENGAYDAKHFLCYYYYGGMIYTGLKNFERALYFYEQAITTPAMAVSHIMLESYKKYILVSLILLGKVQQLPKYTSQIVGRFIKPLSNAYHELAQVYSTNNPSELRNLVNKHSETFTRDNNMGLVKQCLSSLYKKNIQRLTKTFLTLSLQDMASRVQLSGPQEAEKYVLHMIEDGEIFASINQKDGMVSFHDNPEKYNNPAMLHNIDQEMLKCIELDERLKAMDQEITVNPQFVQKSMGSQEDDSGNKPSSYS
UniProt Q9UBL6: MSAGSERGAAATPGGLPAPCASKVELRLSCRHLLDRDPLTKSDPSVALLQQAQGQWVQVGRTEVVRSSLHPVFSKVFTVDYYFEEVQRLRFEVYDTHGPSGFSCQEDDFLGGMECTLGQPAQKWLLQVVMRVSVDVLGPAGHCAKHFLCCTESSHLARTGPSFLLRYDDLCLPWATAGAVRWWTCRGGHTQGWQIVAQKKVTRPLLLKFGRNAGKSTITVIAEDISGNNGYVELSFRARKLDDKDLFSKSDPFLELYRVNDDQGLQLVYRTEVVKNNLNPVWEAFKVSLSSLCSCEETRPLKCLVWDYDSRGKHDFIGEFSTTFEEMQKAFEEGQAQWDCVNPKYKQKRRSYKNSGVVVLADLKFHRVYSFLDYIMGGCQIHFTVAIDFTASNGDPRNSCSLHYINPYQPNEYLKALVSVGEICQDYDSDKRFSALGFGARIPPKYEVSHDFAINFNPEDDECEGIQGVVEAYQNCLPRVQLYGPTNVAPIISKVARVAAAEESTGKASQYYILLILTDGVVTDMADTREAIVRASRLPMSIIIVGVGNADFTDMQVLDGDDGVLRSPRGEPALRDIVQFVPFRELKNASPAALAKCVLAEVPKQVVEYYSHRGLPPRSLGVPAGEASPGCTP
UniProt P31146: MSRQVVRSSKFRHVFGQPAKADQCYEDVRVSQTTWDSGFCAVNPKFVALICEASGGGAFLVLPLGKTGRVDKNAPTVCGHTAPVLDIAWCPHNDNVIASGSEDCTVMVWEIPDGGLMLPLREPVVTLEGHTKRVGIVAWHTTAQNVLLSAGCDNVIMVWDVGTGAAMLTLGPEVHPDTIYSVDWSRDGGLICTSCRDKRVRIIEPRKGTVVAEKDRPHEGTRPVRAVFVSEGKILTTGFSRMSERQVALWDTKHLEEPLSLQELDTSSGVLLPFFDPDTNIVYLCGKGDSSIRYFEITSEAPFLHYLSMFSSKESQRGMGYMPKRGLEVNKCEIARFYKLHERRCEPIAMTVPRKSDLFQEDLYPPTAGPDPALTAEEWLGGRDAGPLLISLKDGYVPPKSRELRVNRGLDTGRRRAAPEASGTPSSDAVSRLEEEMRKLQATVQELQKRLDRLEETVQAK
UniProt Q9UP83: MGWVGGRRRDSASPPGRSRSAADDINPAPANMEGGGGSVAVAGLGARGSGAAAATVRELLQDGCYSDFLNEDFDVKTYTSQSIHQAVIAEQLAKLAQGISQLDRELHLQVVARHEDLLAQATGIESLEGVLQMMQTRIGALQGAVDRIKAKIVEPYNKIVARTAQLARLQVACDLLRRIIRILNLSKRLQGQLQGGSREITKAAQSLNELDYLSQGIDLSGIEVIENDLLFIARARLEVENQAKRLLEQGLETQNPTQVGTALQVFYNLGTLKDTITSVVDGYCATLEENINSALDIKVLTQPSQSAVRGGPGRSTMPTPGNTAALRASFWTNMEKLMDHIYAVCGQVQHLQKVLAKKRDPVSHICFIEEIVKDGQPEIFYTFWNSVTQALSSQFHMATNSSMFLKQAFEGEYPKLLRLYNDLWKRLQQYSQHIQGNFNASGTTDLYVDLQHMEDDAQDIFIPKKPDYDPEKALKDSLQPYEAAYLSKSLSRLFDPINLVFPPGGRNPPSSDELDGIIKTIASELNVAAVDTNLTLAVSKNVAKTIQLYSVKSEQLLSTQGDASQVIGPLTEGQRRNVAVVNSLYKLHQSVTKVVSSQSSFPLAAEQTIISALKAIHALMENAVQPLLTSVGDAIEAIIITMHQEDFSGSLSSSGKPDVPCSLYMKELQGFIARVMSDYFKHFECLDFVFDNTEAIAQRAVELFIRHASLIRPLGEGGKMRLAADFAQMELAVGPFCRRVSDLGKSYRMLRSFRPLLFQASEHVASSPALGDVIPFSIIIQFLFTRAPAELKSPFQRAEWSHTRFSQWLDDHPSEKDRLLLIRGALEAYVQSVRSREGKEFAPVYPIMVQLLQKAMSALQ
UniProt P36551: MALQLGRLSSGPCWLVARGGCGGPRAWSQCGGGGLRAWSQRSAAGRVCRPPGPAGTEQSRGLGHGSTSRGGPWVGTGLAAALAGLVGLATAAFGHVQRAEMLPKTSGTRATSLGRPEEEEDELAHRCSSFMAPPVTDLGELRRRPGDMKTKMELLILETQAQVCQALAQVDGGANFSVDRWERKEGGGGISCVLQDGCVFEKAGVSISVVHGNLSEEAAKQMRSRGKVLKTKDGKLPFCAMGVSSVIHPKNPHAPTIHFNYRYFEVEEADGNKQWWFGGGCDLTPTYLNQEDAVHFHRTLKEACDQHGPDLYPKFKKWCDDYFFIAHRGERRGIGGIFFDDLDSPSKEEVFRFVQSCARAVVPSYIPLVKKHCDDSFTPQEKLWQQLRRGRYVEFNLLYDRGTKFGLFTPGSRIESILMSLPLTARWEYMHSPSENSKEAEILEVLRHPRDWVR
UniProt P12074, whole entry, looked up: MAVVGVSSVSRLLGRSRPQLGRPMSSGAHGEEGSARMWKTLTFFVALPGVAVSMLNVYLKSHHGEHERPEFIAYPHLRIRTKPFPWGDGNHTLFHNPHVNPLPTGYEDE
UniProt O95639, whole entry, looked up: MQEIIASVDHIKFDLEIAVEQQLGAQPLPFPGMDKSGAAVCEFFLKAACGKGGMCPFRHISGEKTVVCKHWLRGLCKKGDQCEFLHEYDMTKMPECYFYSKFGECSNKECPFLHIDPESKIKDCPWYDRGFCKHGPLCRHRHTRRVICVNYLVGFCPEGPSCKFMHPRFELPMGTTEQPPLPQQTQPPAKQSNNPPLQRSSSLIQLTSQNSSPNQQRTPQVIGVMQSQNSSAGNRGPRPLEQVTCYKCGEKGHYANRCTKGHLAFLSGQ
UniProt Q13057: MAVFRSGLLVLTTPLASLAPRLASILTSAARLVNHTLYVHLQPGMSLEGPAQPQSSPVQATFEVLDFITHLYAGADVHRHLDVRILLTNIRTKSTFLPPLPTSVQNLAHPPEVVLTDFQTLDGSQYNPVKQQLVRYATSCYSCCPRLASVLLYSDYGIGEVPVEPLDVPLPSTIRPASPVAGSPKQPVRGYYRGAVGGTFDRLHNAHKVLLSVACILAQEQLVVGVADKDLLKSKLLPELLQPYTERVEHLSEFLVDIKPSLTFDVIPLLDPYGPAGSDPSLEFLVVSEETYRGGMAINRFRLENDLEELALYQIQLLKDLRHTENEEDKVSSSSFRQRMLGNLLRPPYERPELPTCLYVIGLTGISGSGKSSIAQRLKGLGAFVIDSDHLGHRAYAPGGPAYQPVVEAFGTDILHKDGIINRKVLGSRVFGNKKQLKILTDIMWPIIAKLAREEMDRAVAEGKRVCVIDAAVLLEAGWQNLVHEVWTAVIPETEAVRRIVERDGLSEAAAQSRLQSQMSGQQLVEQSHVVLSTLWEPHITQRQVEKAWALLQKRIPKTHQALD
UniProt Q9NZN8, whole entry, looked up: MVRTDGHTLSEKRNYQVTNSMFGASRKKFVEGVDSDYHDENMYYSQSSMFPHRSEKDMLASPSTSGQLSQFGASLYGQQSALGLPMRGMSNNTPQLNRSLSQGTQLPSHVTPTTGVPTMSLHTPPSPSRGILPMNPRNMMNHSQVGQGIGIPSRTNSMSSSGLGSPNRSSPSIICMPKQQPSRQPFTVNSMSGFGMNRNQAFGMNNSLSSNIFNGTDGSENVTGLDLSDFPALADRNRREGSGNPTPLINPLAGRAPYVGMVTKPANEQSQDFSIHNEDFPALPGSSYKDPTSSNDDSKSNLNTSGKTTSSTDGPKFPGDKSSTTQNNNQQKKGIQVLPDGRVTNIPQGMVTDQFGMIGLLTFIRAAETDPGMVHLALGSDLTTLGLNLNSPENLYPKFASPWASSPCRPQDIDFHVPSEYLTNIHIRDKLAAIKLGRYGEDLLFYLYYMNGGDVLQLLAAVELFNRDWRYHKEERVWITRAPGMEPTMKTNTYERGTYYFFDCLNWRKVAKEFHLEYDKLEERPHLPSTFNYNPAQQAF
UniProt Q8IYK4: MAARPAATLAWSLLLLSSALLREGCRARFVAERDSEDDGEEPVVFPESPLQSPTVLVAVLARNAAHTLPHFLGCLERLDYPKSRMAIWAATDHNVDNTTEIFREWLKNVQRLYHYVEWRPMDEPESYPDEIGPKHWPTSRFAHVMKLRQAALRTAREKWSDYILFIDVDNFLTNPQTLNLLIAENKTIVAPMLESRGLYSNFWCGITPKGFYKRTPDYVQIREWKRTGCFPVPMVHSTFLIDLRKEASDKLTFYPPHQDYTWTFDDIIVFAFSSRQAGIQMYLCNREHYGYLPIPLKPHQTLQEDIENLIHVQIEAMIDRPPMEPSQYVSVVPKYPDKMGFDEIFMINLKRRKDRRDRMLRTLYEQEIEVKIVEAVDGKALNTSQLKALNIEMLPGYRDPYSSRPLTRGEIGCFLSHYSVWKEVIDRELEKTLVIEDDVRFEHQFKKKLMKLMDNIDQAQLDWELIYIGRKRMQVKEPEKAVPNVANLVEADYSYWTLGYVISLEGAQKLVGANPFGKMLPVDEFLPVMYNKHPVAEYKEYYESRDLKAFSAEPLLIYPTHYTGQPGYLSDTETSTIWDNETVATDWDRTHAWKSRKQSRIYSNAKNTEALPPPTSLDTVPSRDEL
UniProt Q9GZQ3, whole entry, looked up: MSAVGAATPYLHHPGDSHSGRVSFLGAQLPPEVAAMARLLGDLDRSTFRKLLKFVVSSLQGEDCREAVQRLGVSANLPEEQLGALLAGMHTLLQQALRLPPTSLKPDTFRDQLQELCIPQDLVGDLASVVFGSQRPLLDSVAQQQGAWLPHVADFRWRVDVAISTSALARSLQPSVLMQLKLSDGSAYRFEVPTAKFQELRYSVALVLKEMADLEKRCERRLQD
UniProt Q96MW5: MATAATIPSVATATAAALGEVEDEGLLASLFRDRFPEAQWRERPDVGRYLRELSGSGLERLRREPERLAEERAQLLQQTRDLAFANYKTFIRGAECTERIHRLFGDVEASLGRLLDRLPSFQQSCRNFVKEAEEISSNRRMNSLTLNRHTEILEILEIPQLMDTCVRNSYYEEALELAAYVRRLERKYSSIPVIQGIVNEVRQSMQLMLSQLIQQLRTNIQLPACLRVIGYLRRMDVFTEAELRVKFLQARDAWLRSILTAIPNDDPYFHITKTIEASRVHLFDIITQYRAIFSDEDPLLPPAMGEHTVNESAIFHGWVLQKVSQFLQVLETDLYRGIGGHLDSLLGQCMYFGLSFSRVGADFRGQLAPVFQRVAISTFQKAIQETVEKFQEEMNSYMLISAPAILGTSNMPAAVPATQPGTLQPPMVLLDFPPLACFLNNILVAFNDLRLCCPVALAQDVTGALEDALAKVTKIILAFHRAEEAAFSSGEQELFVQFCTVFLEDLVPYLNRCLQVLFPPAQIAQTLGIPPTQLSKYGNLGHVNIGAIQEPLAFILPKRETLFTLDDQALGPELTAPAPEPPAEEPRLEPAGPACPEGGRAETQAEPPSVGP
UniProt P24311, whole entry, looked up: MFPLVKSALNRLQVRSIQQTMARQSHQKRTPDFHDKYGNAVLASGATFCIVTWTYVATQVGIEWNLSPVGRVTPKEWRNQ

[1] = compound: C/C(=N\NC(=O)C1=CC(=CC=C1)S(=O)(=O)N2CCOCC2)/C3=C(C=CC(=C3)Cl)O
Procedure, shortened: as §1

[2] = compound: C1=CC(=CC=C1C2=NC3=C(N2)C=C(C=C3)C(=O)N)OC4=CC=C(C=C4)Cl
Procedure, shortened: as §1

[3] = compound: C1=CC2=C(C=CC(=C2)/C=C\3/C(=O)NC(=NCC4=CC=CS4)S3)N=C1
Procedure, shortened: as §1

[4] = compound: C1=CC2=NC=CN=C2C=C1/C=C/3\C(=O)NC(=O)S3
Procedure, shortened: as §1

[5] = compound: C1=CC=C(C=C1)C2=NC(=C(N2)C3=CC=NC=C3)C4=CC(=C(C=C4)Cl)O
Procedure, shortened: as §1

[6] = compound: C1=CC=C2C(=C1)C3=NNC4=CC=CC(=C43)C2=O
Procedure, shortened: as §1

[7] = compound: C1CCN(C1)C(=O)NC2=CC=CC(=C2)NC3=NC=C(C(=N3)NCCC4=CN=CN4)Br
Procedure, shortened: as §1

[8] = compound: C1CN(CCC1(CC2=CC=C(C=C2)Cl)N)C3=NC=NC4=C3C=CN4
Procedure, shortened: as §1

IRAK-1-4 Inhibitor I = compound: C1COCCN1CCN2C3=CC=CC=C3N=C2NC(=O)C4=CC(=CC=C4)[N+](=O)[O-] [IRAK-1-4 Inhibitor I]
Procedure, shortened: as §1

Measured: log2 fold change

CPNE1 (UniProt Q99829)
inactive: erlotinib 0.008 | [1] 0.002 | [2] 0.014 | [3] 0.004 | [4] -0.006 | [5] -0.006 | [6] 0.04 | [7] -0.03 | [8] 0.025 | IRAK-1-4 Inhibitor I 0.022

COQ5 (UniProt Q5HYK3)
inactive: erlotinib -0.012 | [1] -0.017 | [2] 0.013 | [3] 0.003 | [4] 0.028 | [5] -0.008 | [6] 0.034 | [7] -0.034 | [8] 0.003 | IRAK-1-4 Inhibitor I 0.038

COG4 (UniProt Q9H9E3)
inactive: erlotinib 0.029 | [1] -0.015 | [2] -0.05 | [3] -0.015 | [4] -0.018 | [5] 0.008 | [6] -0.057 | [7] 0.011 | [8] 0.039 | IRAK-1-4 Inhibitor I 0.009

CNOT4 isoform 9 (UniProt O95628)
inactive: erlotinib 0 | [1] 0.005 | [2] 0.015 | [3] -0.04 | [4] 0 | [5] -0.105 | [6] 0.015 | [7] 0.003 | [8] -0.013 | IRAK-1-4 Inhibitor I 0.054

CNTRL (UniProt Q7Z7A1)
inactive: erlotinib -0.003 | [1] -0.076 | [2] 0.032 | [3] -0.089 | [4] -0.013 | [5] 0.005 | [6] -0.104 | [7] -0.011 | [8] 0.003 | IRAK-1-4 Inhibitor I 0.015

CPT2 (UniProt P23786)
inactive: erlotinib -0.04 | [1] 0.094 | [2] -0.039 | [3] 0.001 | [4] 0.015 | [5] 0.019 | [6] -0.008 | [7] -0.038 | [8] -0.028 | IRAK-1-4 Inhibitor I 0.06

CNPY3 (UniProt Q9BT09)
inactive: erlotinib -0.031 | [1] -0.016 | [2] 0.009 | [3] 0.013 | [4] 0.01 | [5] 0.053 | [6] 0.047 | [7] -0.052 | [8] -0.002 | IRAK-1-4 Inhibitor I 0.03

COQ3 (UniProt Q9NZJ6)
inactive: erlotinib -0.165 | [1] 0.098 | [2] -0.22 | [3] -0.136 | [4] -0.03 | [5] 0.008 | [6] 0.005 | [7] -0.114 | [8] 0.404 | IRAK-1-4 Inhibitor I -0.06

CPT1A (UniProt P50416)
inactive: erlotinib -0.029 | [1] -0.034 | [2] 0.01 | [3] -0.001 | [4] -0.05 | [5] 0.002 | [6] 0.011 | [7] -0.036 | [8] 0.024 | IRAK-1-4 Inhibitor I -0.008

COMT (UniProt P21964)
inactive: erlotinib 0.031 | [1] -0.03 | [2] -0.01 | [3] 0.011 | [4] -0.029 | [5] 0.001 | [6] 0.043 | [7] -0.024 | [8] -0.033 | IRAK-1-4 Inhibitor I 0.019

COPS3 (UniProt Q9UNS2)
inactive: erlotinib 0.007 | [1] -0.005 | [2] 0.01 | [3] -0.011 | [4] -0.027 | [5] 0.002 | [6] -0.004 | [7] -0.027 | [8] 0.026 | IRAK-1-4 Inhibitor I 0.009

CPNE7 (UniProt Q9UBL6)
inactive: erlotinib -0.023 | [1] -0.033 | [2] 0.009 | [3] -0.001 | [4] 0.016 | [5] 0.012 | [6] -0.05 | [7] -0.038 | [8] 0.086 | IRAK-1-4 Inhibitor I 0.076

COPS4 (UniProt Q9BT78)
inactive: erlotinib -0.013 | [1] 0.051 | [2] -0.002 | [3] -0.005 | [4] -0.01 | [5] 0.002 | [6] 0.045 | [7] 0.012 | [8] 0.008 | IRAK-1-4 Inhibitor I -0.013

CPSF1 (UniProt Q10570)
inactive: erlotinib 0.018 | [1] 0.009 | [2] 0.034 | [3] -0.01 | [4] -0.037 | [5] 0.013 | [6] -0.03 | [7] -0.007 | [8] 0.015 | IRAK-1-4 Inhibitor I -0.009

CORO1A (UniProt P31146)
inactive: erlotinib 0.077 | [1] 0.086 | [2] -0.032 | [3] 0.036 | [4] -0.022 | [5] 0.005 | [6] 0.009 | [7] 0.155 | [8] -0.031 | IRAK-1-4 Inhibitor I 0.021

COG5 isoform 2 (UniProt Q9UP83)
inactive: erlotinib 0.073 | [1] 0.016 | [2] -0.044 | [3] 0.001 | [4] -0.004 | [5] 0.019 | [6] 0.031 | [7] 0.019 | [8] 0.043 | IRAK-1-4 Inhibitor I -0.001

CPOX (UniProt P36551)
inactive: erlotinib -0.017 | [1] 0.003 | [2] -0.005 | [3] -0.013 | [4] 0 | [5] 0.029 | [6] 0.041 | [7] -0.011 | [8] 0.018 | IRAK-1-4 Inhibitor I 0.052

COA6 isoform 2 (UniProt Q5JTJ3)
inactive: erlotinib 0.025 | [1] 0.098 | [2] -0.012 | [3] -0.038 | [4] 0.076 | [5] 0.044 | [6] -0.069 | [7] 0.045 | [8] 0.085 | IRAK-1-4 Inhibitor I -0.162

COLEC11 isoform 10 (UniProt Q9BWP8)
inactive: erlotinib -0.126 | [1] 0.013 | [2] -0.15 | [3] 0.087 | [4] -0.008 | [5] -0.109 | [6] 0.112 | [7] -0.03 | [8] -0.034 | IRAK-1-4 Inhibitor I -0.053

COMMD8 (UniProt Q9NX08)
inactive: erlotinib 0.102 | [1] -0.049 | [2] -0.009 | [3] 0.145 | [4] -0.05 | [5] -0.041 | [6] -0.077 | [7] -0.036 | [8] -0.026 | IRAK-1-4 Inhibitor I -0.016

COX6A1 (UniProt P12074)
inactive: erlotinib -0.042 | [1] 0.032 | [2] 0.075 | [3] -0.017 | [4] -0.037 | [5] -0.021 | [6] 0.065 | [7] 0.011 | [8] 0.028 | IRAK-1-4 Inhibitor I -0.023

CPSF4 (UniProt O95639)
inactive: erlotinib 0.071 | [1] 0.166 | [2] 0.012 | [3] -0.023 | [4] -0.046 | [5] 0.034 | [6] -0.053 | [7] 0.04 | [8] 0.052 | IRAK-1-4 Inhibitor I -0.029

COASY isoform 2 (UniProt Q13057)
inactive: erlotinib 0.006 | [1] -0.049 | [2] -0.044 | [3] -0.007 | [4] 0.022 | [5] -0.018 | [6] -0.05 | [7] -0.019 | [8] 0.024 | IRAK-1-4 Inhibitor I -0.019

CNOT2 (UniProt Q9NZN8)
inactive: erlotinib 0.016 | [1] 0.013 | [2] 0.021 | [3] 0.015 | [4] -0.016 | [5] -0.011 | [6] 0.014 | [7] 0.004 | [8] 0.012 | IRAK-1-4 Inhibitor I 0.007

COLGALT2 (UniProt Q8IYK4)
inactive: erlotinib -0.004 | [1] -0.051 | [2] -0.03 | [3] 0.012 | [4] 0 | [5] -0.006 | [6] -0.013 | [7] -0.022 | [8] -0.006 | IRAK-1-4 Inhibitor I -0.026

CRABP2 (UniProt P29373)
inactive: erlotinib 0.026 | [1] -0.112 | [2] -0.017 | [3] -0.063 | [4] 0.2 | [5] -0.042 | [6] -0.151 | [8] 0.309 | IRAK-1-4 Inhibitor I -0.024
active: [7] 0.399

COQ6 (UniProt Q9Y2Z9)
inactive: erlotinib -0.009 | [1] -0.165 | [2] 0.045 | [3] 0.017 | [4] -0.033 | [5] 0.01 | [6] 0.013 | [7] 0.066 | [8] 0.05 | IRAK-1-4 Inhibitor I 0.002

COMMD5 (UniProt Q9GZQ3)
inactive: erlotinib 0.03 | [1] 0.003 | [2] -0.009 | [3] -0.008 | [4] 0.048 | [5] -0.028 | [6] -0.031 | [7] 0.08 | [8] -0.151 | IRAK-1-4 Inhibitor I -0.007

COG8 (UniProt Q96MW5)
inactive: erlotinib -0.097 | [1] 0.006 | [2] -0.065 | [3] 0.026 | [4] 0.05 | [5] 0.063 | [6] 0 | [7] 0.052 | [8] -0.011 | IRAK-1-4 Inhibitor I 0.01

CPNE2 (UniProt Q96FN4)
inactive: erlotinib 0.023 | [2] 0.035 | [4] 0.013 | [5] 0 | [7] -0.027 | [8] 0.063 | IRAK-1-4 Inhibitor I -0.018

Three neighbouring entries out of the list so far:
COQ6 (UniProt Q9Y2Z9)
inactive: erlotinib -0.009 | [1] -0.165 | [2] 0.045 | [3] 0.017 | [4] -0.033 | [5] 0.01 | [6] 0.013 | [7] 0.066 | [8] 0.05 | IRAK-1-4 Inhibitor I 0.002

COMMD5 (UniProt Q9GZQ3)
inactive: erlotinib 0.03 | [1] 0.003 | [2] -0.009 | [3] -0.008 | [4] 0.048 | [5] -0.028 | [6] -0.031 | [7] 0.08 | [8] -0.151 | IRAK-1-4 Inhibitor I -0.007

COG8 (UniProt Q96MW5)
inactive: erlotinib -0.097 | [1] 0.006 | [2] -0.065 | [3] 0.026 | [4] 0.05 | [5] 0.063 | [6] 0 | [7] 0.052 | [8] -0.011 | IRAK-1-4 Inhibitor I 0.01

Additional results

COX7B (UniProt P24311)
inactive: erlotinib -0.024 | [1] 0.026 | [2] 0.009 | [3] -0.011 | [5] -0.003 | [6] 0.022 | [7] -0.085 | [8] 0.022 | IRAK-1-4 Inhibitor I 0.025

Source: the supplement of paper PMC10849652
